# Out of some 2,300 compounds screened, about 1,200 (52%) were called active. The set was probably picked from earlier hits. Inconclusive results, whose numbers are uncertain, are shown with a selection of clear calls. Calls come from the whole dose curve; as a rule, active = well fitted inhibition curve with a large enough effect; inconclusive = small, poorly fitted or top-dose-only effect, or effect the other way; inactive = no such curve, though single readings can be large or run the other way. Where the call is inconclusive, the potency comes from a doubtful curve fit.
# Assay: Confirmation screen for delayed death inhibitors of the malarial parasite plastid, 48 hour incubation; note: nearly all actives have a fitted effect of over 65% in size
# Conditions: P. falciparum-infected erythrocytes, luciferase growth; series mostly up to 28.7 µM; activity change, negative = inhibition: at the top concentration
# In short: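 Erythrocytes infected with luciferase-expressing P. falciparum (2% hematocrit, 0.1% parasitemia) incubated with compounds 48 hours at 37 C, 5% CO2, in RPMI/Albumax. Growth inhibition scored as reduced luminescence after detection reagent.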
# % is set by controls: 0 for no effect and ±100 for the full control effect; potency is the fitted concentration of half-maximal effect.
Compound,Potency,"activity change, negative = inhibition"
O=C(Nc1ccc(C#Cc2ccccc2)cc1)C1CC1,"inconclusive: 0.891 µM [activator, full curve]",–
O=c1c2ccccc2nnn1CSc1nnc(C2COc3ccccc3O2)n1-c1ccccc1 (stereo not drawn),"inconclusive: 4.47 µM [inhibitor, partial curve, poor fit]",–
CC1(C)Cc2nc(-c3ccccc3)nc(SCC(O)CO)c2CO1 (stereo not drawn),"inconclusive: 14.1 µM [inhibitor, single point]",–
COc1ccc(NC(=O)NC2CCCc3ccccc32)c(OC)c1 (stereo not drawn),"inconclusive: 8.91 µM [inhibitor, partial curve]",–
O=C(Nc1ccc2c(c1)CCCN2C(=O)c1ccccc1)c1ccccc1Br,"inconclusive: 8.91 µM [inhibitor, partial curve]",–
CC(=O)c1ccc[n+](CC(=O)NC(C)c2ccccc2)c1 (stereo not drawn),"inconclusive: 12.6 µM [inhibitor, partial curve, poor fit]",–
O=C(NCCCn1ccnc1)c1cccc(S(=O)(=O)Nc2ccc(Br)cc2)c1,"inconclusive: 15.8 µM [inhibitor, partial curve, poor fit]",–
C=CCNC(=O)c1onc(CSc2ccc(Cl)cc2)c1C(=O)O,–,inactive: 11.2%
O=C(Cc1c[nH]c2ccccc12)Nc1nnc(C2CC2)s1,"inconclusive: 12.6 µM [inhibitor, partial curve]",–
O=[N+]([O-])c1ccc2nc(-c3cccnc3)[nH]c2c1,"inconclusive: 22.4 µM [inhibitor, single point]",–
C#CCOCCOCCOCCNc1nc(N2CCN(C(=O)Cn3cc(CCCCN)nn3)CC2)nc(N2CCN(C(=O)[C@H](C)n3cc(CCCN=C(N)N)nn3)CC2)n1,"inconclusive: 15.8 µM [inhibitor, partial curve]",–
O=C(NCc1ccccn1)c1ccccc1OCc1ccc(Cl)cc1Cl,"inconclusive: 14.1 µM [inhibitor, single point]",–
Cn1cc([N+](=O)[O-])c(C(=O)Nc2ccc(Br)cn2)n1,"inconclusive: 4.47 µM [activator, full curve]",–
C=CCNC(=O)c1onc(CSc2cccc3ccccc23)c1C(=O)O,–,inactive: 13.7%
CCC1CCCCN1CCCNC(=O)Cn1c(=O)c2cccn2c2cccnc21 (stereo not drawn),–,inactive: -8.96%
CC(C)C[C@H](NC(=O)c1[nH]cnc1C(=O)Nc1ccc(CNC(=O)OC(C)(C)C)cc1)C(=O)OC(C)(C)C,active: 6.31 µM,–
CCOCCCNC(=S)N1CCN(c2nc(-c3ccccc3)cs2)CC1,active: 11.2 µM,–
COc1ccc(NC(=O)c2cccc(S(=O)(=O)NCc3ccco3)c2)c(OC)c1,"inconclusive: 7.94 µM [inhibitor, partial curve, poor fit]",–
CCOC(=O)c1cnc2c(C)c(Cl)ccc2c1NCCCN1CCOCC1,active: 14.1 µM,–
O=C(CCCc1ccccc1)Nc1ccnn1C1CCN(Cc2ccc(CO)o2)CC1,"inconclusive: 12.6 µM [inhibitor, single point]",–
O=C(Nc1ccccc1SCC1CSc2nc3ccccc3c(=O)n21)c1ccccc1Cl (stereo not drawn),active: 11.2 µM,–
Cc1cc(OCC(=O)N2CCCC2)cc(C)c1Cl,–,inactive: -29.2%
C/C(=N\NC(=O)c1cccc(S(=O)(=O)N2CCOCC2)c1)c1ccc(O)cc1,"inconclusive: 1.41 µM [inhibitor, full curve]",–

Compound,Potency,"activity change, negative = inhibition"
COc1ccc(OC)c(/C=C/c2c([N+](=O)[O-])c(=O)n(C)c(=O)n2C)c1,"inconclusive: 7.08 µM [inhibitor, single point]",–
COc1ccccc1OCC(=O)Nc1ccc(S(=O)(=O)N2CCCCCC2)cc1,"inconclusive: 15.8 µM [inhibitor, single point]",–
CC(NC(=O)c1cc2sccc2n1C)c1ccc2c(c1)OCCO2 (stereo not drawn),–,inactive: -25.7%
O=C(NCc1ccc2c(c1)OCO2)c1nc(S(=O)(=O)Cc2ccccc2F)ncc1Cl,–,inactive: -11.3%
CCc1ccc(N(CC(=O)NCc2ccco2)C(=O)CCC(=O)Nc2ccccn2)cc1,"inconclusive: 15.8 µM [inhibitor, single point]",–
CNc1ncc(C(=O)c2ccc(-c3ccccc3)cc2)s1,"inconclusive: 2.82 µM [activator, partial curve]",–
COc1ccccc1NC(=O)Cc1nnc(SCC(=O)NC2CCCCC2)n1C,"inconclusive: 15.8 µM [inhibitor, single point]",–
Clc1cccc(OCCCCCN2CCOCC2)c1,–,inactive: -3.47%
Cn1cccc1/C=N/NC(=O)CNc1cccc2ccccc12,"inconclusive: 14.1 µM [inhibitor, partial curve, poor fit]",–
CC(Oc1ccccc1F)C(=O)Nc1ccc2ccccc2c1 (stereo not drawn),–,inactive: 34.4%
Cc1ccccc1OCC(=O)Nc1ccc([N+](=O)[O-])cc1,"inconclusive: 5.62 µM [inhibitor, single point]",–
CC(C)c1ccc(/C=C2\SC(=S)N(CCC(=O)N3CCCCC3CCO)C2=O)cc1 (stereo not drawn),"inconclusive: 11.2 µM [inhibitor, partial curve, poor fit]",–
Cc1cc(C)nc(S/C=C/C(=O)c2ccccc2)n1,"inconclusive: 14.1 µM [inhibitor, single point]",–
CC(=O)N1CCCc2cc(S(=O)(=O)N3CCCC(C(=O)NCc4ccccc4)C3)ccc21 (stereo not drawn),"inconclusive: 15.8 µM [inhibitor, single point]",–
COc1cccc(NC(=O)c2nc(S(C)(=O)=O)ncc2Cl)c1,–,inactive: -26.2%
COc1ccc(CCN(C)Cc2ccc(OC)c(OCc3ccccc3)c2)cc1OC,"inconclusive: 15.8 µM [inhibitor, partial curve]",–
NC(=S)Nn1c(-c2ccccc2)nc2ccccc2c1=O,–,inactive: 0.99%
CSc1nnc(C)c(=O)[nH]1,–,inactive: 4.83%
N#C/C(=C\C=C\c1ccccc1[N+](=O)[O-])C(=O)NC1CCCCC1,active: 4.47 µM,–
COc1ccc(OC)c(C2=CC(=O)C[C@H](c3ccc4c(c3)OCO4)C2)c1,"inconclusive: 15.8 µM [inhibitor, single point]",–
Cc1ccc(-n2c(-c3ccc(Cl)cc3)c[n+]3c2CCC3)cc1,active: 0.355 µM,–
c1ccc(-c2ccc(-c3cn4c(n3)CCC4)cc2)cc1,"inconclusive: 15.8 µM [inhibitor, single point]",–
O=C(CN1CCN(c2ccc(F)cc2)CC1)Nc1ccc(S(=O)(=O)N2CCOCC2)cc1,"inconclusive: 15.8 µM [inhibitor, single point]",–

# 19 of the compounds above, with bars between the fields.
Compound | Potency | activity change, negative = inhibition
COc1ccc(OC)c(/C=C/c2c([N+](=O)[O-])c(=O)n(C)c(=O)n2C)c1 | inconclusive: 7.08 µM [inhibitor, single point] | –
COc1ccccc1OCC(=O)Nc1ccc(S(=O)(=O)N2CCCCCC2)cc1 | inconclusive: 15.8 µM [inhibitor, single point] | –
CC(NC(=O)c1cc2sccc2n1C)c1ccc2c(c1)OCCO2 (stereo not drawn) | – | inactive: -25.7%
O=C(NCc1ccc2c(c1)OCO2)c1nc(S(=O)(=O)Cc2ccccc2F)ncc1Cl | – | inactive: -11.3%
CCc1ccc(N(CC(=O)NCc2ccco2)C(=O)CCC(=O)Nc2ccccn2)cc1 | inconclusive: 15.8 µM [inhibitor, single point] | –
CNc1ncc(C(=O)c2ccc(-c3ccccc3)cc2)s1 | inconclusive: 2.82 µM [activator, partial curve] | –
COc1ccccc1NC(=O)Cc1nnc(SCC(=O)NC2CCCCC2)n1C | inconclusive: 15.8 µM [inhibitor, single point] | –
Clc1cccc(OCCCCCN2CCOCC2)c1 | – | inactive: -3.47%
Cn1cccc1/C=N/NC(=O)CNc1cccc2ccccc12 | inconclusive: 14.1 µM [inhibitor, partial curve, poor fit] | –
CC(Oc1ccccc1F)C(=O)Nc1ccc2ccccc2c1 (stereo not drawn) | – | inactive: 34.4%
Cc1ccccc1OCC(=O)Nc1ccc([N+](=O)[O-])cc1 | inconclusive: 5.62 µM [inhibitor, single point] | –
CC(C)c1ccc(/C=C2\SC(=S)N(CCC(=O)N3CCCCC3CCO)C2=O)cc1 (stereo not drawn) | inconclusive: 11.2 µM [inhibitor, partial curve, poor fit] | –
Cc1cc(C)nc(S/C=C/C(=O)c2ccccc2)n1 | inconclusive: 14.1 µM [inhibitor, single point] | –
CC(=O)N1CCCc2cc(S(=O)(=O)N3CCCC(C(=O)NCc4ccccc4)C3)ccc21 (stereo not drawn) | inconclusive: 15.8 µM [inhibitor, single point] | –
COc1cccc(NC(=O)c2nc(S(C)(=O)=O)ncc2Cl)c1 | – | inactive: -26.2%
COc1ccc(CCN(C)Cc2ccc(OC)c(OCc3ccccc3)c2)cc1OC | inconclusive: 15.8 µM [inhibitor, partial curve] | –
NC(=S)Nn1c(-c2ccccc2)nc2ccccc2c1=O | – | inactive: 0.99%
CSc1nnc(C)c(=O)[nH]1 | – | inactive: 4.83%
N#C/C(=C\C=C\c1ccccc1[N+](=O)[O-])C(=O)NC1CCCCC1 | active: 4.47 µM | –

# (cont.)

Compound,Potency,"activity change, negative = inhibition"
Cc1coc2cc3oc(=O)c(CCC(=O)NCCCn4ccnc4)c(C)c3cc12,"inconclusive: 12.6 µM [inhibitor, single point]",–
Nc1ccc[n+](CC(=O)c2ccccc2)c1,"inconclusive: 15.8 µM [inhibitor, single point]",–
Cc1ccccc1Nc1nc(N)nc(COC(=O)CC2CC3CCC2C3)n1 (stereo not drawn),"inconclusive: 14.1 µM [inhibitor, single point]",–
CCCCN1/C(=C/c2cccc[n+]2C)Sc2cc(NC(C)=O)ccc21,active: 3.16 µM,–
COc1ccccc1-c1cc(C(=O)N/N=C/c2ccc(C)o2)c2ccccc2n1,–,inactive: -25.3%
CCCCN(CCCNC(=O)c1ccc(CS(=O)(=O)c2ccc(OC)cc2)o1)Cc1ccccc1,active: 12.6 µM,–
COc1ccc(C(=O)/C=C2/C(=O)Nc3ccccc32)c(OC)c1,"inconclusive: 12.6 µM [inhibitor, single point]",–
CCC1CN(C(=O)N2CCC(C(=O)NCc3ccc(OC)cc3OC)CC2)c2ccccc2O1 (stereo not drawn),"inconclusive: 15.8 µM [inhibitor, partial curve]",–
COc1ccccc1Nc1nnc(SCC(=O)N2CCCC2)s1,"inconclusive: 14.1 µM [inhibitor, partial curve, poor fit]",–
O=C(/C=C/c1c(F)cccc1Cl)c1ccc(O)cc1,"inconclusive: 22.4 µM [inhibitor, single point]",–
O=C(NC1CCCCC1)C1CCN(c2nnnn2-c2ccccc2)CC1,"inconclusive: 15.8 µM [inhibitor, single point]",–
CC(C)c1cc(C(=O)NC2CCCc3c2cnn3-c2ccccc2F)no1 (stereo not drawn),"inconclusive: 3.16 µM [inhibitor, partial curve, poor fit]",–
CC(Sc1ncnc2sc(-c3ccccc3)cc12)C(=O)NCC1CCCO1 (stereo not drawn),"inconclusive: 22.4 µM [inhibitor, single point]",–
O=C(COc1ccccc1)N1CCN(S(=O)(=O)c2ccc(Br)cc2)CC1,active: 11.2 µM,–
CC(=O)NC(=O)COC(=O)/C=C/c1c(C)nn(Cc2c(Cl)cccc2Cl)c1Cl,"inconclusive: 15.8 µM [inhibitor, partial curve, poor fit]",–
Cc1ccc(NC(=O)C2CCCN(c3cnccn3)C2)c(C)c1 (stereo not drawn),"inconclusive: 15.8 µM [inhibitor, single point]",–
NC(=O)C1=C[C@H](C2CCCCC2)C[C@H](OCc2ccc(CO)cc2)O1,"inconclusive: 5.01 µM [activator, full curve]",–
COc1ccc2[nH]c(=O)c(CN(CCCN(C)C)C(=O)Nc3ccc(F)cc3)cc2c1,active: 14.1 µM,–
O=C(CCl)NCCN1C(=O)S/C(=C\c2cccnc2)C1=O,active: 7.94 µM,–
Cc1ccc([C@H]2C(C#N)=C(N)Oc3cc(C)oc(=O)c32)o1,"inconclusive: 7.94 µM [inhibitor, partial curve, poor fit]",–
COc1ccc(CN2C(=O)c3ccccc3C2C(=O)NC2CCC(C)CC2)c(OC)c1 (stereo not drawn),"inconclusive: 14.1 µM [inhibitor, partial curve, poor fit]",–
CCCCN(C(=O)CSc1cc(C)c2ccc(OC)cc2n1)c1c(N)n(Cc2ccccc2)c(=O)[nH]c1=O,"inconclusive: 1.78 µM [inhibitor, partial curve, poor fit]",–

# From PubChem BioAssay AID504850 (National Center for Advancing Translational Sciences (NCATS), 2011)
